The assay concerns the target SARM1 SAM-TIR (Homo sapiens, UniProt Q6SZW1). Briefly: SAM-TIR SARM1 IC50 assay (NADase activity, NAD+ cleavage, RapidFire MS readout). The class given is biochemical. The note with it: read-out: SARM1 IC50; SAM-TIR lysate 5 μg/mL, 2 h pre-incubation with compound, 5 μM NAD+, 2 hr room temperature. How it is done:
This Example describes an assay of SAM-TIR NADase activity and use of this assay to measure the efficacy of compounds of Formula I to block SARM1 mediated NAD+ cleavage. This assay is optimized in such a way as to characterize the efficacy of the compounds in Formula I to inhibit SARM1 activity and to calculate an IC50 value for each compound. This assay makes use of a fragment of the SARM1 molecule encompassing the SAM and TIR domains.
NRK1-HEK293T cells were seeded onto 150 cm^2 plates at 20×10^6 cells per plate. The next day, the cells were transfected with 15 μg FCIV-SST (SAM-TIR expression plasmid, SEQ ID NO: 1) using X-TREMEGENE™ 9 DNA Transfection Reagent (Roche product #06365787001).
The cultures were supplemented with 1 mM NR at time of transfection to minimize toxicity from SAM-TIR overexpression. […] Protein concentration was determined by the Bicinchoninic (BCA) method and used to normalize lysate concentrations.
The enzymatic assay was performed in a 384-well polypropylene plate in Dulbecco's PBS buffer in a final assay volume of 20 μL. […] The NAD+ and ADPR concentrations were analyzed by a RapidFire High Throughput Mass Spectrometry System (Agilent Technologies, Santa Clara, CA) using an API4000 triple quadrupole mass spectrometer (AB Sciex Framingham, Mass.).

By UniProt entry, the sequences of proteins in these tests, tags left out. Residues count along the entry.
UniProt Q6SZW1, 409-724 limits assumed: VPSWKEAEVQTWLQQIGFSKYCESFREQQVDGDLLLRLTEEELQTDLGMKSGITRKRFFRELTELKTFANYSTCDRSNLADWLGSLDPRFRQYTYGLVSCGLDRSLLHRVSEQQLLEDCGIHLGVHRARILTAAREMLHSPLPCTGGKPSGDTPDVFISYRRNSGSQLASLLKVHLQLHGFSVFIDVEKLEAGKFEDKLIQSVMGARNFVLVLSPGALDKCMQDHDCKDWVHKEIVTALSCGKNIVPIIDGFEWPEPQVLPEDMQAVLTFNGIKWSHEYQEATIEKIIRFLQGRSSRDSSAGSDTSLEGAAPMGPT

Molecules are shown by their SMILES. Structures were worked out from names or drawings and are uncertain.

Usually IC50 stands for the concentration at which inhibition is half-maximal. `N#Cc1c(Nc2ccccc2C(F)(F)F)sn(C2Cc3ccccc3C2)c1=O`: the IC50 was less than 1 µM.

As to `N#Cc1c(Nc2ccccc2C(F)(F)F)sn(-c2ccc3c(c2)OCC3)c1=O`, the IC50 was less than 1 µM.

For the origin of these results see US12624025B2, “Inhibitors of SARM1” (DISARM THERAPEUTICS, INC., priority 2019, dated 2026).
